{
  "sequences": {"note": "Sequences of proteins named here, by UniProt entry; tags and fusion partners are left off. A change or cut given only in a name is not applied to a line headed by its entry.", "UniProt Q63HQ0": "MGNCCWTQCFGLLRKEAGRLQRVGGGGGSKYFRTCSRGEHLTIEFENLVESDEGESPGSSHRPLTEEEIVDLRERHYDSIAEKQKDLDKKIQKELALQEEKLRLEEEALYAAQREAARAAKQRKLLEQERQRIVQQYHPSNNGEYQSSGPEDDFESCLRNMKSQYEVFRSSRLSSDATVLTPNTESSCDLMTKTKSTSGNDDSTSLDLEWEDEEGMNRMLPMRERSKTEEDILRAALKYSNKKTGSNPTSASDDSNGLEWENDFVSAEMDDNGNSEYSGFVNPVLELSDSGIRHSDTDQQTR", "UniProt O14618": "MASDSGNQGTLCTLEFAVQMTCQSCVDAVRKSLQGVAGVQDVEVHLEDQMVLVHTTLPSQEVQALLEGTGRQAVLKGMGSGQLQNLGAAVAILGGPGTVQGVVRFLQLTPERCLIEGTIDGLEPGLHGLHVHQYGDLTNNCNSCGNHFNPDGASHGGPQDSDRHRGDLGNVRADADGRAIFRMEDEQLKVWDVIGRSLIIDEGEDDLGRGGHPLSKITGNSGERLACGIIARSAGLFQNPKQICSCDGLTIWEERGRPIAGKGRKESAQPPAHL", "UniProt Q96G28": "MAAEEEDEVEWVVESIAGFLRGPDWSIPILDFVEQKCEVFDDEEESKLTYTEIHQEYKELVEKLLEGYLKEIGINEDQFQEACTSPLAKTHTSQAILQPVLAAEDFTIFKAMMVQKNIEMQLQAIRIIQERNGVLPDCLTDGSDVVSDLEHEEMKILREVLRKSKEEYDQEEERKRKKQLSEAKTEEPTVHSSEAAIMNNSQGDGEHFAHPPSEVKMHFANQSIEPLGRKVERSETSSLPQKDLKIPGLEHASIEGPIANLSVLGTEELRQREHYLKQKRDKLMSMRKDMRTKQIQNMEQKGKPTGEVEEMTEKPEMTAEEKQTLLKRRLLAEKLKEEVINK", "UniProt Q5TEJ8": "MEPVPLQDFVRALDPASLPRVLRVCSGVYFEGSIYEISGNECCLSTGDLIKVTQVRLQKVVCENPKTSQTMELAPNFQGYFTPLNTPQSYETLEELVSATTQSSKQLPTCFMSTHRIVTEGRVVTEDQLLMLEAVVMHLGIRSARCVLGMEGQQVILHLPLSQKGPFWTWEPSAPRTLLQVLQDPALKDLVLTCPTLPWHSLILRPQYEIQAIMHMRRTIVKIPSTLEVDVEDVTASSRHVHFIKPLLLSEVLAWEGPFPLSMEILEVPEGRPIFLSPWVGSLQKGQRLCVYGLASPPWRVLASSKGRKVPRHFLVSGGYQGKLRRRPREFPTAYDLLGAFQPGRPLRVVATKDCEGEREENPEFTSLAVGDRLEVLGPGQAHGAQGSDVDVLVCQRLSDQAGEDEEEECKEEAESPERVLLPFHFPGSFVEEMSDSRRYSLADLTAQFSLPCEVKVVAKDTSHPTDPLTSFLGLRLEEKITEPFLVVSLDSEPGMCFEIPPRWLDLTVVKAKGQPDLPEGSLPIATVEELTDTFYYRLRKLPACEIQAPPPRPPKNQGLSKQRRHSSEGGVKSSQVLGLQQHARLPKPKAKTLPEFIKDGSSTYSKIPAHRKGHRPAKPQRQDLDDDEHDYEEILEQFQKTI", "UniProt Q8NC60": "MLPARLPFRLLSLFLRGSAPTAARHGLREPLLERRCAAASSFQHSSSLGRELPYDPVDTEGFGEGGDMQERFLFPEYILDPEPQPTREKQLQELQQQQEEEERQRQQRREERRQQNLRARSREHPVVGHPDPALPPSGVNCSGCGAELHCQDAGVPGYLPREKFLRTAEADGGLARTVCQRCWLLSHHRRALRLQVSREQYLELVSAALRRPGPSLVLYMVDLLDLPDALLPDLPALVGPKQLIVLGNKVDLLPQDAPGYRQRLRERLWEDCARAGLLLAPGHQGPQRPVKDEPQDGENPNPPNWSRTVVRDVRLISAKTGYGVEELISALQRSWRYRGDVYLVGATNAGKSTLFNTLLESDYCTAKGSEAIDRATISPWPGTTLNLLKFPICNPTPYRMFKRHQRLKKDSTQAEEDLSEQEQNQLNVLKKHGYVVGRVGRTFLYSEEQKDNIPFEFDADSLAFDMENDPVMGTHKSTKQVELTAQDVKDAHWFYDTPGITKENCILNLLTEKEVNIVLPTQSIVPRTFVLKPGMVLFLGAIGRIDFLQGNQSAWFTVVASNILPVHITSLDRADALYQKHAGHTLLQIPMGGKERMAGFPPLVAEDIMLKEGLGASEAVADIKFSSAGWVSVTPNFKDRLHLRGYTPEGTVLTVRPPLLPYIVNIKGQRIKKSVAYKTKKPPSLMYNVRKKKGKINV", "UniProt Q7L5D6": "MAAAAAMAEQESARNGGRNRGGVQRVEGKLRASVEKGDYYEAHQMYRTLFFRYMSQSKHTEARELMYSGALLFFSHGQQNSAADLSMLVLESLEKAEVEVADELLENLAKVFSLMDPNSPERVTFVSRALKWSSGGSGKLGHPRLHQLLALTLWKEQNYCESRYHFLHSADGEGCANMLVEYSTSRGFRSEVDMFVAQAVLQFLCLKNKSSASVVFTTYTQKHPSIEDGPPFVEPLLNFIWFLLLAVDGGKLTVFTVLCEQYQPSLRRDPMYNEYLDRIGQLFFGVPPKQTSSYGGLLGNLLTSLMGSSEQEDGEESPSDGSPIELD", "UniProt Q7L592": "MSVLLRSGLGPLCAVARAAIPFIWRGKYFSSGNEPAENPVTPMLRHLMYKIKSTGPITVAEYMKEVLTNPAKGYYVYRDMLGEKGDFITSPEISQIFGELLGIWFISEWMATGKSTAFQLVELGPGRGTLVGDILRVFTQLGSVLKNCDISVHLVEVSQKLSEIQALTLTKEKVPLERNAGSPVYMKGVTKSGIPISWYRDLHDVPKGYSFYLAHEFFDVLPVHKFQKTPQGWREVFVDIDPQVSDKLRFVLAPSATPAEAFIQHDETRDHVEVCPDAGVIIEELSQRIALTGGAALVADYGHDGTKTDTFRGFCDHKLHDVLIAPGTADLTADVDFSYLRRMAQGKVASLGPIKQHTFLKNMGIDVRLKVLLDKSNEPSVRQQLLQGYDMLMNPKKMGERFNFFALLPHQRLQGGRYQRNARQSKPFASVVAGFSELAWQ", "UniProt Q8WUD4": "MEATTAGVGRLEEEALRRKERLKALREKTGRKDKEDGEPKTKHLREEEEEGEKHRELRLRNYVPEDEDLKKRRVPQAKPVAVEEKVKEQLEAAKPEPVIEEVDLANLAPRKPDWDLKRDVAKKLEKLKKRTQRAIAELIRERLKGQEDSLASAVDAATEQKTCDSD", "UniProt O14936": "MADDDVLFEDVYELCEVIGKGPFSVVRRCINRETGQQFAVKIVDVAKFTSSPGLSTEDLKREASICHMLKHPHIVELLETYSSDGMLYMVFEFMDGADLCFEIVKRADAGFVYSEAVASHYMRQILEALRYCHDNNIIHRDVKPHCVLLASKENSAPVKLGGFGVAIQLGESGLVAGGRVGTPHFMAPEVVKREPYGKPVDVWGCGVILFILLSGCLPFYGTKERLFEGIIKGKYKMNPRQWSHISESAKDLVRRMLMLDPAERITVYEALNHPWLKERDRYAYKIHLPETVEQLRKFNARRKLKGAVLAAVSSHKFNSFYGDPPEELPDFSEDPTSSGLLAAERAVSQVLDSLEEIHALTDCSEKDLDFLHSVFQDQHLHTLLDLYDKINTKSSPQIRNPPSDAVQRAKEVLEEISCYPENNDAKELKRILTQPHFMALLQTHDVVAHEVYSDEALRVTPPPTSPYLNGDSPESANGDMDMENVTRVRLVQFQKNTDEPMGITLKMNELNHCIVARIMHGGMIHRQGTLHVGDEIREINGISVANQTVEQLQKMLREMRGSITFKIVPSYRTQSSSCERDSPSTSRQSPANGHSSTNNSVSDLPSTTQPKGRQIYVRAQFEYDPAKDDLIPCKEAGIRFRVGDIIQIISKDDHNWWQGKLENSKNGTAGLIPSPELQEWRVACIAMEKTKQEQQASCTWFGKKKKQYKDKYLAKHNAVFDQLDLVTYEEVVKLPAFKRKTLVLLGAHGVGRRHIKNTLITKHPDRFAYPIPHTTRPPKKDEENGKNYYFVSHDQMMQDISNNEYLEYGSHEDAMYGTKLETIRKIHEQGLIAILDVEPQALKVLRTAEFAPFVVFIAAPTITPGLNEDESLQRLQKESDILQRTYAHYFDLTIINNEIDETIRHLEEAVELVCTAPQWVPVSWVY", "UniProt Q9NWH2": "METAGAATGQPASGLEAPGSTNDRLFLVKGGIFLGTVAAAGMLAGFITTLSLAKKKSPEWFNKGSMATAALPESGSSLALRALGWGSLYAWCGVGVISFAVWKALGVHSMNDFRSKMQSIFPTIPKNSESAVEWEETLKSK", "UniProt Q96BR5": "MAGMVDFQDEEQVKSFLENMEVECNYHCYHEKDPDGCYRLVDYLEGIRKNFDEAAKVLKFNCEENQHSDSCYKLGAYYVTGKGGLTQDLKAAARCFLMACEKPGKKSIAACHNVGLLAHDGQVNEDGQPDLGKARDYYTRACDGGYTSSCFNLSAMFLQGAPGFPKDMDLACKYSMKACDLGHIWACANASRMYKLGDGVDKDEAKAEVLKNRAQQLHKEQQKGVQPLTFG", "UniProt Q9Y2V2": "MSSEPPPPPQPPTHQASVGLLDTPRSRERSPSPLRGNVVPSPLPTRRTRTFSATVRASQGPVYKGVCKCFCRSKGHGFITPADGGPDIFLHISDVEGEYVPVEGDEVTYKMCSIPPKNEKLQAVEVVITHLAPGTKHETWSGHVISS", "UniProt P20810": "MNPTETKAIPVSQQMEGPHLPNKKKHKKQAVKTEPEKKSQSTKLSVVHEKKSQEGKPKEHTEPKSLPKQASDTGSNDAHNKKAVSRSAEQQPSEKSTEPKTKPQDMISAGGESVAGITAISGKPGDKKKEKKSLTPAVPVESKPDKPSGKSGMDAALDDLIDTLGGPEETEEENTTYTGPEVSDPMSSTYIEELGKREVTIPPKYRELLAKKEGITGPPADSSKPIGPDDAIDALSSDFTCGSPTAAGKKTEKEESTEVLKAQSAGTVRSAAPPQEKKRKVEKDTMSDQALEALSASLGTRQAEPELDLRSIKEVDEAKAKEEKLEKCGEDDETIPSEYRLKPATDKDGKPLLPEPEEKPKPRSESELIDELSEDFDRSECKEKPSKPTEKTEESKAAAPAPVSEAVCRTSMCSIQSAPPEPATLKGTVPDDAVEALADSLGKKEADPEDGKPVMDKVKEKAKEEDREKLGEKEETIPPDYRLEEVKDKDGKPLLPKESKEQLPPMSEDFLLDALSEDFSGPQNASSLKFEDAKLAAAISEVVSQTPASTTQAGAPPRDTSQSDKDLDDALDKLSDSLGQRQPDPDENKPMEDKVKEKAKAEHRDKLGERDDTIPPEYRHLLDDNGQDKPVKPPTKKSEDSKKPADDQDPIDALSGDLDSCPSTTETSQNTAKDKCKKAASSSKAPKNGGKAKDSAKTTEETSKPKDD", "UniProt Q13137": "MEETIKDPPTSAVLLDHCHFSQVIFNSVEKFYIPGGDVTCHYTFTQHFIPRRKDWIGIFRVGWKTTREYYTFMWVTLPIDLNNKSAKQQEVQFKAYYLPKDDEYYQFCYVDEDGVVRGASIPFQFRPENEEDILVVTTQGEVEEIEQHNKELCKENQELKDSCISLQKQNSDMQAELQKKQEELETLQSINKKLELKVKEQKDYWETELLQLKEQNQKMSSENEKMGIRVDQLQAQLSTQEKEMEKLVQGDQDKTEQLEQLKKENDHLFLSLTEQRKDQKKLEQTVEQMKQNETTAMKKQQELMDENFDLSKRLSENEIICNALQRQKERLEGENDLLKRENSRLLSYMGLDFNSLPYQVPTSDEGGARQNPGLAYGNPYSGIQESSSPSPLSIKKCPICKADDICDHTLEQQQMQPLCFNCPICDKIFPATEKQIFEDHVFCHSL", "UniProt Q9Y592": "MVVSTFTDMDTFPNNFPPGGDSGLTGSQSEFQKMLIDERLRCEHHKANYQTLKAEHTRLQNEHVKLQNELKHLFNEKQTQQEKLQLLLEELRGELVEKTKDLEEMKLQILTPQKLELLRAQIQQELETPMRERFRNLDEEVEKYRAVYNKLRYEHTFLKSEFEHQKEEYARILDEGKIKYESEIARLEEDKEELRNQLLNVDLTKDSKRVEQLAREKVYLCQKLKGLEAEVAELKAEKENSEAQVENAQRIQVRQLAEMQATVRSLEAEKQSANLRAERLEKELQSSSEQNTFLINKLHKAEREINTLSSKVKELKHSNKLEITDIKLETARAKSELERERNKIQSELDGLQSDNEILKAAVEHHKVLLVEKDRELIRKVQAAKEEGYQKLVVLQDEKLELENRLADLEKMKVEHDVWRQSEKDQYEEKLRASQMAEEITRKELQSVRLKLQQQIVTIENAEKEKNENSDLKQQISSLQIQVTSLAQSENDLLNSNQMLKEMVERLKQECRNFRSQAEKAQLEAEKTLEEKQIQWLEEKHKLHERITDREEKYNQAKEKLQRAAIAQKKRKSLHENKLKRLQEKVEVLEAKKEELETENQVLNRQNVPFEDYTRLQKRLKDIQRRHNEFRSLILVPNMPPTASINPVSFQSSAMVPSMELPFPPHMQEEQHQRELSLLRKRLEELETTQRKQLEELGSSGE"},
  "source": "the supplement of paper PMC7666118",
  "note": "Some of the results follow.",
  "data": [
    {"compound": "COc1ccc(Cn2ccc3cc(C)c(C(=O)NO)cc32)cc1", "experiment": "dose-dependent thermal stabilisation call (2D-TPP, DLPTP, 10% FDR) (binary (1 = stabilised)); higher = stabilised by the compound", "conditions": "system: HL-60 intact cells; concentration range 0.04-10 µM", "method": "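2D thermal proteome profiling in intact HL-60 cells treated with BRD-3811 (0, 0.04, 0.29, 2, 10 uM) for 90 min at 37 C, then heated 3 min at one of 12 temperatures (42-63.9 C). Soluble protein was quantified by TMT10 MS. The value is the DLPTP call of the paper: dose-dependent thermal stabilisation over all temperatures at 10% FDR (F-test of a dose-response against a flat model); one experiment, one call per tested protein.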", "values": [
      {"target": "C8ORF30A (UniProt Q9BTY7)", "dose-dependent thermal stabilisation call": "inactive: 0"},
      {"target": "C6ORF72 (UniProt Q9NU53)", "dose-dependent thermal stabilisation call": "inactive: 0"},
      {"target": "CCDC5 (UniProt Q96CS2)", "dose-dependent thermal stabilisation call": "inactive: 0"},
      {"target": "C6ORF106 (UniProt Q9H6K1)", "dose-dependent thermal stabilisation call": "inactive: 0"},
      {"target": "C4ORF16 (UniProt Q63HQ0)", "dose-dependent thermal stabilisation call": "inactive: 0"},
      {"target": "CARS2 (UniProt Q9HA77)", "dose-dependent thermal stabilisation call": "inactive: 0"},
      {"target": "CD2BP2 (UniProt O95400)", "dose-dependent thermal stabilisation call": "inactive: 0"},
      {"target": "CCS (UniProt O14618)", "dose-dependent thermal stabilisation call": "inactive: 0"},
      {"target": "C7ORF26 (UniProt Q96N11)", "dose-dependent thermal stabilisation call": "inactive: 0"},
      {"target": "CCDC104 (UniProt Q96G28)", "dose-dependent thermal stabilisation call": "inactive: 0"},
      {"target": "C1ORF38 (UniProt Q5TEJ8)", "dose-dependent thermal stabilisation call": "inactive: 0"},
      {"target": "C19ORF66 (UniProt Q9NUL5)", "dose-dependent thermal stabilisation call": "inactive: 0"},
      {"target": "C4ORF14 (UniProt Q8NC60)", "dose-dependent thermal stabilisation call": "inactive: 0"},
      {"target": "CCDC97 (UniProt Q96F63)", "dose-dependent thermal stabilisation call": "inactive: 0"},
      {"target": "CCDC90A (UniProt Q96AQ8)", "dose-dependent thermal stabilisation call": "inactive: 0"},
      {"target": "C1ORF69 (UniProt Q5T440)", "dose-dependent thermal stabilisation call": "inactive: 0"},
      {"target": "C3ORF39 (UniProt Q8NAT1)", "dose-dependent thermal stabilisation call": "inactive: 0"},
      {"target": "C7ORF20 (UniProt Q7L5D6)", "dose-dependent thermal stabilisation call": "inactive: 0"},
      {"target": "CCDC21 (UniProt Q6P2H3)", "dose-dependent thermal stabilisation call": "inactive: 0"},
      {"target": "C2ORF56 (UniProt Q7L592)", "dose-dependent thermal stabilisation call": "inactive: 0"},
      {"target": "CCDC12 (UniProt Q8WUD4)", "dose-dependent thermal stabilisation call": "inactive: 0"},
      {"target": "CASK (UniProt O14936)", "dose-dependent thermal stabilisation call": "inactive: 0"},
      {"target": "C9ORF5 (UniProt Q9H330)", "dose-dependent thermal stabilisation call": "inactive: 0"},
      {"target": "C6ORF35 (UniProt Q9NWH2)", "dose-dependent thermal stabilisation call": "inactive: 0"},
      {"target": "C1ORF163 (UniProt Q96BR5)", "dose-dependent thermal stabilisation call": "inactive: 0"},
      {"target": "CCDC86 (UniProt Q9H6F5)", "dose-dependent thermal stabilisation call": "inactive: 0"},
      {"target": "CARHSP1 (UniProt Q9Y2V2)", "dose-dependent thermal stabilisation call": "inactive: 0"},
      {"target": "C7ORF43 (UniProt Q8WVR3)", "dose-dependent thermal stabilisation call": "inactive: 0"},
      {"target": "CAST (UniProt P20810)", "dose-dependent thermal stabilisation call": "inactive: 0"},
      {"target": "CCNC (UniProt P24863)", "dose-dependent thermal stabilisation call": "inactive: 0"},
      {"target": "CALCOCO2 (UniProt Q13137)", "dose-dependent thermal stabilisation call": "inactive: 0"},
      {"target": "CCDC41 (UniProt Q9Y592)", "dose-dependent thermal stabilisation call": "inactive: 0"},
      {"target": "CCT6A (UniProt P40227)", "dose-dependent thermal stabilisation call": "inactive: 0"},
      {"target": "CASC3 (UniProt O15234)", "dose-dependent thermal stabilisation call": "inactive: 0"},
      {"target": "CCT7 (UniProt Q99832)", "dose-dependent thermal stabilisation call": "inactive: 0"},
      {"target": "C22ORF28 (UniProt Q9Y3I0)", "dose-dependent thermal stabilisation call": "inactive: 0"}
    ]}
  ]
}
